# Data taken from the supplement of paper PMC10849652.
# The chains behind the UniProt entries cited, without tags or fusion partners. Where a name states a change or a piece, a line headed by the entry shows the natural chain unless it says otherwise.
# UniProt O60732: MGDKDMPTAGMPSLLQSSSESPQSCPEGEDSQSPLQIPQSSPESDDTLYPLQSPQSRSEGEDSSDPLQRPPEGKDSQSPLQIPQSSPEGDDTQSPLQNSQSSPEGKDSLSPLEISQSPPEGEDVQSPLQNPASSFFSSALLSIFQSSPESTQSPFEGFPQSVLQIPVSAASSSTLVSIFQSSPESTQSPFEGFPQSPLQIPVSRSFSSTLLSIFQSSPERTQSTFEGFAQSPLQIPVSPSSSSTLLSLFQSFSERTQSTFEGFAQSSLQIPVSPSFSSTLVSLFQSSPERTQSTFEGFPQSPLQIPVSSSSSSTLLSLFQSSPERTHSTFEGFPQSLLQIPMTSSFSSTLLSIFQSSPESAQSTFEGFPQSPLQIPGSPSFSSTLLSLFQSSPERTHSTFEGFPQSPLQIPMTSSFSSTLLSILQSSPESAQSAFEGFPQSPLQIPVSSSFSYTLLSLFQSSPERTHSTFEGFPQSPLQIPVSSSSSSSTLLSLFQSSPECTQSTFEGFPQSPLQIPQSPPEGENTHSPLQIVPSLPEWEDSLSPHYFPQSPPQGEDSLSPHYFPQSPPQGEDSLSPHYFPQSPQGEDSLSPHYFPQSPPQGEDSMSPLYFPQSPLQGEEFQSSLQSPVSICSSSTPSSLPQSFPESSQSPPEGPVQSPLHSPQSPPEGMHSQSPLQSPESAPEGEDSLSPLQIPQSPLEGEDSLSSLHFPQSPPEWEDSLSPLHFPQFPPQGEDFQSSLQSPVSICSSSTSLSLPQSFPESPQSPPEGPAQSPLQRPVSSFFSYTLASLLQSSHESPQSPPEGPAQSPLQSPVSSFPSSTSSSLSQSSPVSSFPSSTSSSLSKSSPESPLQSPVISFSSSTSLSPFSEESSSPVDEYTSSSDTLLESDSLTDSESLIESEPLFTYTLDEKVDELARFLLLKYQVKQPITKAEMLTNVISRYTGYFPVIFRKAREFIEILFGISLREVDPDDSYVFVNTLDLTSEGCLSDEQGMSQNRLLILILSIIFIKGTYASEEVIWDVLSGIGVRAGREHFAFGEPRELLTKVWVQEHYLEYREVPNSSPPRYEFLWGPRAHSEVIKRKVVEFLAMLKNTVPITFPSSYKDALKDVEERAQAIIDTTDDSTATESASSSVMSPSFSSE
# UniProt Q8IZL2, whole entry, looked up: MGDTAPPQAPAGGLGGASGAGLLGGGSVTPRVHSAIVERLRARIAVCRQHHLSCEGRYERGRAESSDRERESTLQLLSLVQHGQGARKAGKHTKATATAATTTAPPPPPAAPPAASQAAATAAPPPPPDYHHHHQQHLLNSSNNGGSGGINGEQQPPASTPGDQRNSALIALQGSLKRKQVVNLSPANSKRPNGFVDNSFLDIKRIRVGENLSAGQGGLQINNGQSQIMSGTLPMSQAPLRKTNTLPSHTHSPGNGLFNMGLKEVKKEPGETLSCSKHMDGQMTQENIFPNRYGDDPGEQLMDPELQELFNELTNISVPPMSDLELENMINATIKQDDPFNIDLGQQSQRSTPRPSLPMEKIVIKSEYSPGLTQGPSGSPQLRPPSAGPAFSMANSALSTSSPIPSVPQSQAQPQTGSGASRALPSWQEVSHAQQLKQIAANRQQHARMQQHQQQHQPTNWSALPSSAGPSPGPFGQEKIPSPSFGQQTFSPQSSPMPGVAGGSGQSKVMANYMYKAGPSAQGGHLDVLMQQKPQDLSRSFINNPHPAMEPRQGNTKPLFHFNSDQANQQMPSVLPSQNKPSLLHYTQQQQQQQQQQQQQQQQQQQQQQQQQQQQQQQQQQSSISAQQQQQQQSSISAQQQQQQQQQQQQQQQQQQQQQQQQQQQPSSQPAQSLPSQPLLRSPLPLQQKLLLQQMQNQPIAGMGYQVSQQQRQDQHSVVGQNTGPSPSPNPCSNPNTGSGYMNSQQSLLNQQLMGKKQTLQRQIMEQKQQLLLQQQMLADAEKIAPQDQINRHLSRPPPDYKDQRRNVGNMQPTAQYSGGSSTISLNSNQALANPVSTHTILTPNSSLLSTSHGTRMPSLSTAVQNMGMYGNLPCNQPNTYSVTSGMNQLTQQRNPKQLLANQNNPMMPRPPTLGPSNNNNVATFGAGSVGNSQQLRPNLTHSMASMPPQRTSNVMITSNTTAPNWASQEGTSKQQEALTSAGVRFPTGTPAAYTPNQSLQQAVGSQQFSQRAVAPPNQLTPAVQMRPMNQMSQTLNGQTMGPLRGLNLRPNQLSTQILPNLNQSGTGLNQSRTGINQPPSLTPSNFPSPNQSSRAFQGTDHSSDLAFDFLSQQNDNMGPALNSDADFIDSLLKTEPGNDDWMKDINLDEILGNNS
# UniProt Q9UBF1: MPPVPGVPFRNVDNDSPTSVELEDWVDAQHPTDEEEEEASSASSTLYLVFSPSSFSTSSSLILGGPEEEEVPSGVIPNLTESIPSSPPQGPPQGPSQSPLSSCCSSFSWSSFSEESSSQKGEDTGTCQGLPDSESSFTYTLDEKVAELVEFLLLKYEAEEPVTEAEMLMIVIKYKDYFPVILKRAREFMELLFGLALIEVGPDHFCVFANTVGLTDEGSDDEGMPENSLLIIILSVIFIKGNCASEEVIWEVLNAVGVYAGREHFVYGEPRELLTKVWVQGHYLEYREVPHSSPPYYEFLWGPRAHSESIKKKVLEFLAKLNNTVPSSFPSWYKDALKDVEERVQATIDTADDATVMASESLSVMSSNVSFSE
# UniProt P27361, whole entry, looked up: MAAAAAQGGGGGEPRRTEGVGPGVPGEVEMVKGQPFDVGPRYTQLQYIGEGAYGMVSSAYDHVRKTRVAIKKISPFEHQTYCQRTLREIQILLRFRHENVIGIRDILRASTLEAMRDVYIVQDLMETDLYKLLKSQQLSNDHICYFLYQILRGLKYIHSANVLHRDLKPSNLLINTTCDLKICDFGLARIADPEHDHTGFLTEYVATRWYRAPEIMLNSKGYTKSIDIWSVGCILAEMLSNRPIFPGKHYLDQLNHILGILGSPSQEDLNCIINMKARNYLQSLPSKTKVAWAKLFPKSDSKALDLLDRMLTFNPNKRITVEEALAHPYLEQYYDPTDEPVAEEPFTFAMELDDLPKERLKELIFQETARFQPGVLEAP
# UniProt Q9UI95, whole entry, looked up: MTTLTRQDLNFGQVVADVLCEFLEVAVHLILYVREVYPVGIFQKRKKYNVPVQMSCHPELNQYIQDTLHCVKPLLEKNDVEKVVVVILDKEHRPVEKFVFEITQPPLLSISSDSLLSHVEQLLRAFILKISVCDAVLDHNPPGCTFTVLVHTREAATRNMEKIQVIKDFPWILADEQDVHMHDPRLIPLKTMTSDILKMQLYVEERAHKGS
# UniProt Q15691: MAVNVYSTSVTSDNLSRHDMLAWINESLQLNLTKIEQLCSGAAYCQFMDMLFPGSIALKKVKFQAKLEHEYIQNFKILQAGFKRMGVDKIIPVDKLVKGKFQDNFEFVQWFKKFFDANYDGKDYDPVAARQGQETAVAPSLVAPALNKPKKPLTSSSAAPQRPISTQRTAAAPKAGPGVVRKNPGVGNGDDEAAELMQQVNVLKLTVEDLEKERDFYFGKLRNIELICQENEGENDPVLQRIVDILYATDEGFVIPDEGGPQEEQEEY
# UniProt Q9Y250: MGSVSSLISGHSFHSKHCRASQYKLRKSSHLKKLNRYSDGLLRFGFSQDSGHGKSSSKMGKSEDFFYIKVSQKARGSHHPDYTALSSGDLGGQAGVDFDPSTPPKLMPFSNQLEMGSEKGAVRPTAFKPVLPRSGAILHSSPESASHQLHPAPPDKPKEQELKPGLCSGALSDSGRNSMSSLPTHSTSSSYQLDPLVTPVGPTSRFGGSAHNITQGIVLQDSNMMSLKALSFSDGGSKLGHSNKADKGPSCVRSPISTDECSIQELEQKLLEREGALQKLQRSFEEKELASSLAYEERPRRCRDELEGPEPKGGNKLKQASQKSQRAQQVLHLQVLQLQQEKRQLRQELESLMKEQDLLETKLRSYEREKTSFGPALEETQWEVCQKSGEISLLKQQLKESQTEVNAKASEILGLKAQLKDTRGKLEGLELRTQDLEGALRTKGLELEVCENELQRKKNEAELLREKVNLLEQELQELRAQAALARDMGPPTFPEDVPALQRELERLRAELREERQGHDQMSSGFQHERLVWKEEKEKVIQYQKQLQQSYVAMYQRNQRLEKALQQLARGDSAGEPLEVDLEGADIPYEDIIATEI
# UniProt Q8WXG6, whole entry, looked up: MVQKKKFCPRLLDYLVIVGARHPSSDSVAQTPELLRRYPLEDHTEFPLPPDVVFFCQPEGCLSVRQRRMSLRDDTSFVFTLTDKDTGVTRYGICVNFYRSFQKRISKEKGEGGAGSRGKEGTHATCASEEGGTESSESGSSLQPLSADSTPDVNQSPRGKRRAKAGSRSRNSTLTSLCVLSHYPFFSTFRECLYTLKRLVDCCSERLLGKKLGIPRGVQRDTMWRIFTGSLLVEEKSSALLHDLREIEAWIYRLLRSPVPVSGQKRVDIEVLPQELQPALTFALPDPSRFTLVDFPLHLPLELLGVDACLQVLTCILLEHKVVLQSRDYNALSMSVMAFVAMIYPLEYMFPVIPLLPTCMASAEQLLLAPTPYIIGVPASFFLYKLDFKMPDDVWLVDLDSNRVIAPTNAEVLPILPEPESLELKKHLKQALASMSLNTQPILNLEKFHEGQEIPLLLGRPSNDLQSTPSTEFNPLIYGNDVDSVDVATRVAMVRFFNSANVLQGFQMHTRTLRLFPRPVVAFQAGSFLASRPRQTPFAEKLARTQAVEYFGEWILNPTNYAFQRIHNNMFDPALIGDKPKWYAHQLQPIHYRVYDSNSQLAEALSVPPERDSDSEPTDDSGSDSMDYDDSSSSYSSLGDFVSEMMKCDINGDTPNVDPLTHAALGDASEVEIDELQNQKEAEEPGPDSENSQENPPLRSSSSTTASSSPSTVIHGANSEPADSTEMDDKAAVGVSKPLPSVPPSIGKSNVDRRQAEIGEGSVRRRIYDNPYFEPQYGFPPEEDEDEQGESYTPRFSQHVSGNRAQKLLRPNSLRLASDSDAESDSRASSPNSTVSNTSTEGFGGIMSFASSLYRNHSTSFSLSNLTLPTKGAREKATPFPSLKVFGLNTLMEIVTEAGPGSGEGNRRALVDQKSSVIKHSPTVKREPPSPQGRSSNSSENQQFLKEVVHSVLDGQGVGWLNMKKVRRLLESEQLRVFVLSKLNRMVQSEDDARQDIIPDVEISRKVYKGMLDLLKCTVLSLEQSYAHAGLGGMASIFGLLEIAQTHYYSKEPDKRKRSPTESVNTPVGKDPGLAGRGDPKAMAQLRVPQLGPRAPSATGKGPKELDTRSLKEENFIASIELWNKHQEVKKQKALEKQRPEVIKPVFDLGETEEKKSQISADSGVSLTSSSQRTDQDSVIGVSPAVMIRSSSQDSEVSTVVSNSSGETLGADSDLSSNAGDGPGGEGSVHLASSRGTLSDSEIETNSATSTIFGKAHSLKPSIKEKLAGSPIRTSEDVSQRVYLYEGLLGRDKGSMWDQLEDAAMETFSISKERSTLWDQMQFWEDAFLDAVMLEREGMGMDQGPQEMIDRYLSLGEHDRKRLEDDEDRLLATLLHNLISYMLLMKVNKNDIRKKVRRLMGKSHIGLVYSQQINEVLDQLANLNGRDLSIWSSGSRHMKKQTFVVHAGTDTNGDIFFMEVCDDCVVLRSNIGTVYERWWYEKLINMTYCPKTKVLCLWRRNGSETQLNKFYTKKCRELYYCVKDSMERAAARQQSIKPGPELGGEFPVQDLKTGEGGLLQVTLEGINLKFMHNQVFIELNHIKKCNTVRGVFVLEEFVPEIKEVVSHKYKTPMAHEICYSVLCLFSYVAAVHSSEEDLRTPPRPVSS
# Some of the results follow.
# How the values were obtained:
# Assay in all cases: log2 fold change, soluble protein after heating vs DMSO (PISA); higher = thermal stabilisation; K562 lysate, 10 uM; active = over 0.2 and 3.5 SD of the protein, either way, in both replicates (recomputed)
# lapatinib = compound: CS(=O)(=O)CCNCc1ccc(-c2ccc3ncnc(Nc4ccc(OCc5cccc(F)c5)c(Cl)c4)c3c2)o1 [lapatinib]
# Procedure, shortened: (§1)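 Soluble protein was defined as the supernatant remaining after 21,000xg for 90 min, following pooling of heated aliquots and adjustment to 0.5% NP-40 at 4°C. Before that, crude K562 extract at 1 mg/mL protein in PBS pH 7.4 with 1 mM MgCl2 was treated with 10 μM compound for 30 min and heated for 3 min across 48°C-58°C. Quantification used TMTpro 16plex LC-MS/MS with channel sums equalised, and values are log-two fold changes in thermal stability relative to solvent controls from duplicates.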
# pictilisib = compound: CS(=O)(=O)N1CCN(Cc2cc3nc(-c4cccc5[nH]ncc45)nc(N4CCOCC4)c3s2)CC1 [pictilisib]
# Procedure, shortened: as §1
# crizotinib = compound: C[C@@H](Oc1cc(-c2cnn(C3CCNCC3)c2)cnc1N)c1c(Cl)ccc(F)c1Cl [crizotinib]
# Procedure, shortened: as §1
# [1] = compound: C[C@H](C1=CC=C(C=C1)C(=O)NC2=C3C=CNC3=NC=C2)N
# Procedure, shortened: as §1
# duvelisib = compound: C[C@H](Nc1ncnc2nc[nH]c12)c1cc2cccc(Cl)c2c(=O)n1-c1ccccc1 [duvelisib]
# Procedure, shortened: as §1
# gandotinib = compound: Cc1cc(Nc2cc(CN3CCOCC3)c3nc(C)c(Cc4ccc(Cl)cc4F)n3n2)n[nH]1 [gandotinib]
# Procedure, shortened: as §1
# tozasertib = compound: Cc1cc(Nc2cc(N3CCN(C)CC3)nc(Sc3ccc(NC(=O)C4CC4)cc3)n2)n[nH]1 [tozasertib]
# Procedure, shortened: as §1
# doramapimod = compound: Cc1ccc(-n2nc(C(C)(C)C)cc2NC(=O)Nc2ccc(OCCN3CCOCC3)c3ccccc23)cc1 [doramapimod]
# Procedure, shortened: as §1
# bafetinib = compound: Cc1ccc(NC(=O)c2ccc(CN3CC[C@H](N(C)C)C3)c(C(F)(F)F)c2)cc1Nc1nccc(-c2cncnc2)n1 [bafetinib]
# Procedure, shortened: as §1
# [2] = compound: Cc1cccc(CC(=O)N2CCc3c2ccc(-c2cn(C)c4ncnc(N)c24)c3F)n1
# Procedure, shortened: as §1
# nilotinib = compound: Cc1cn(-c2cc(NC(=O)c3ccc(C)c(Nc4nccc(-c5cccnc5)n4)c3)cc(C(F)(F)F)c2)cn1 [nilotinib]
# Procedure, shortened: as §1
# [3] = compound: Cc1nc(Nc2n[nH]c3c2CN(C(=O)N[C@H](CN(C)C)c2ccccc2)C3(C)C)c2sccc2n1
# Procedure, shortened: as §1
# dasatinib = compound: Cc1nc(Nc2ncc(C(=O)Nc3c(C)cccc3Cl)s2)cc(N2CCN(CCO)CC2)n1 [dasatinib]
# Procedure, shortened: as §1
# [4] = compound: Cc1ncc(-c2ccnc(Nc3ccc(S(C)(=O)=O)cc3)n2)n1C(C)C
# Procedure, shortened: as §1
# [5] = compound: Cn1cc(-c2ccc3c(c2)CCN3C(=O)Cc2cccc(C(F)(F)F)c2)c2c(N)ncnc21
# Procedure, shortened: as §1
# quisinostat = compound: Cn1cc(CNCC2CCN(c3ncc(C(=O)NO)cn3)CC2)c2ccccc21 [quisinostat]
# Procedure, shortened: as §1
# tipifarnib = compound: Cn1cncc1[C@@](N)(c1ccc(Cl)cc1)c1ccc2c(c1)c(-c1cccc(Cl)c1)cc(=O)n2C [tipifarnib]
# Procedure, shortened: as §1
# [6] = compound: NC(=O)Nc1cc(-c2cccc(F)c2)sc1C(=O)N[C@H]1CCCNC1
# Procedure, shortened: as §1
# [7] = compound: NC(=O)c1cnc(N[C@@H]2CCCC[C@@H]2N)nc1Nc1cccc(-n2nccn2)c1
# Procedure, shortened: as §1
# [8] = compound: NC1(c2ccc(-c3nc4ccn5c(=O)[nH]nc5c4cc3-c3ccccc3)cc2)CCC1
# Procedure, shortened: as §1
Target,log2 fold change (lapatinib),log2 fold change (pictilisib),log2 fold change (crizotinib),log2 fold change [1],log2 fold change (duvelisib),log2 fold change (gandotinib),log2 fold change (tozasertib),log2 fold change (doramapimod),log2 fold change (bafetinib),log2 fold change [2],log2 fold change (nilotinib),log2 fold change [3],log2 fold change (dasatinib),log2 fold change [4],log2 fold change [5],log2 fold change (quisinostat),log2 fold change (tipifarnib),log2 fold change [6],log2 fold change [7],log2 fold change [8]
MAGEC1 (UniProt O60732),inactive: -0.012,inactive: -0.022,inactive: -0.054,inactive: 0.002,inactive: 0.023,inactive: -0.026,inactive: -0.008,inactive: 0,inactive: -0.018,inactive: 0.081,inactive: 0.02,inactive: 0.023,inactive: -0.062,inactive: 0.017,inactive: 0.041,inactive: -0.061,inactive: -0.021,inactive: 0.035,inactive: -0.009,inactive: -0.046
MAML2 (UniProt Q8IZL2),inactive: 0.023,inactive: 0.139,inactive: 0.003,inactive: -0.042,inactive: 0.045,inactive: 0.037,inactive: -0.029,inactive: 0.05,inactive: 0.009,inactive: 0.025,inactive: 0.055,inactive: 0.073,inactive: 0.081,inactive: 0.031,inactive: 0.033,inactive: -0.114,inactive: 0.015,inactive: 0.016,inactive: -0.202,inactive: -0.008
MAGEC2 (UniProt Q9UBF1),inactive: -0.008,inactive: -0.011,inactive: -0.11,inactive: -0.154,inactive: 0.035,inactive: 0.017,inactive: 0.009,inactive: 0.014,inactive: -0.047,inactive: 0.01,inactive: 0.004,inactive: -0.026,inactive: 0.034,inactive: -0.02,inactive: 0.008,inactive: -0.227,inactive: 0.007,inactive: 0.008,inactive: 0.008,inactive: -0.068
MAPK3 (UniProt P27361),inactive: -0.028,inactive: 0,inactive: -0.01,inactive: -0.021,inactive: -0.01,inactive: 0.089,inactive: -0.038,inactive: -0.023,inactive: 0.021,inactive: -0.043,inactive: 0.009,active: 0.272,inactive: -0.026,inactive: 0.141,inactive: -0.019,inactive: 0.016,inactive: -0.013,inactive: 0.022,inactive: 0.094,inactive: -0.003
MAD2L2 (UniProt Q9UI95),inactive: -0.003,inactive: 0.058,inactive: -0.142,inactive: -0.008,inactive: -0.001,inactive: -0.127,inactive: 0.042,inactive: 0.022,inactive: -0.11,inactive: 0.073,inactive: 0.031,inactive: -0.029,inactive: -0.064,inactive: 0.006,inactive: -0.035,inactive: -0.231,inactive: -0.015,inactive: 0.064,inactive: 0.117,inactive: -0.065
MAPRE1 (UniProt Q15691),inactive: -0.004,inactive: 0.009,inactive: 0.022,inactive: 0.077,inactive: -0.002,inactive: -0.033,inactive: -0.003,inactive: -0.006,inactive: 0.032,inactive: -0.049,inactive: -0.006,inactive: 0.01,inactive: 0.005,inactive: -0.02,inactive: 0.001,inactive: 0.038,inactive: 0.036,inactive: -0.006,inactive: -0.011,inactive: 0.014
LZTS1 (UniProt Q9Y250),inactive: -0.136,inactive: -0.222,inactive: -0.821,inactive: -0.233,inactive: 0.308,inactive: -0.137,inactive: -0.1,inactive: 0.177,inactive: -0.268,inactive: 0.083,inactive: -0.13,inactive: 0.023,inactive: 0.056,inactive: 0.167,inactive: -0.266,active: -1.06,inactive: 0.087,inactive: 0.186,inactive: -0.02,inactive: -0.297
MADD isoform 4 (UniProt Q8WXG6),inactive: 0.027,inactive: -0.037,inactive: -0.037,inactive: -0.015,inactive: -0.034,inactive: -0.017,inactive: -0.004,inactive: 0.021,inactive: -0.041,inactive: 0.026,inactive: -0.002,inactive: 0.011,inactive: -0.007,inactive: 0.002,inactive: 0.01,inactive: -0.047,inactive: -0.048,inactive: 0,inactive: 0.007,inactive: 0.017

# An excerpt of these results, tab-delimited:
Target	log2 fold change (lapatinib)	log2 fold change (pictilisib)	log2 fold change (crizotinib)	log2 fold change [1]	log2 fold change (duvelisib)	log2 fold change (gandotinib)	log2 fold change (tozasertib)	log2 fold change (doramapimod)	log2 fold change (bafetinib)	log2 fold change [2]	log2 fold change (nilotinib)	log2 fold change [3]	log2 fold change (dasatinib)	log2 fold change [4]	log2 fold change [5]	log2 fold change (quisinostat)	log2 fold change (tipifarnib)	log2 fold change [6]	log2 fold change [7]	log2 fold change [8]
MAGEC2 (UniProt Q9UBF1)	inactive: -0.008	inactive: -0.011	inactive: -0.11	inactive: -0.154	inactive: 0.035	inactive: 0.017	inactive: 0.009	inactive: 0.014	inactive: -0.047	inactive: 0.01	inactive: 0.004	inactive: -0.026	inactive: 0.034	inactive: -0.02	inactive: 0.008	inactive: -0.227	inactive: 0.007	inactive: 0.008	inactive: 0.008	inactive: -0.068
LZTS1 (UniProt Q9Y250)	inactive: -0.136	inactive: -0.222	inactive: -0.821	inactive: -0.233	inactive: 0.308	inactive: -0.137	inactive: -0.1	inactive: 0.177	inactive: -0.268	inactive: 0.083	inactive: -0.13	inactive: 0.023	inactive: 0.056	inactive: 0.167	inactive: -0.266	active: -1.06	inactive: 0.087	inactive: 0.186	inactive: -0.02	inactive: -0.297
